Some of the results follow.

Sequences of proteins named here, by UniProt entry; tags and fusion partners are left off. A change or cut given only in a name is not applied to a line headed by its entry.
UniProt O75822, whole entry, looked up: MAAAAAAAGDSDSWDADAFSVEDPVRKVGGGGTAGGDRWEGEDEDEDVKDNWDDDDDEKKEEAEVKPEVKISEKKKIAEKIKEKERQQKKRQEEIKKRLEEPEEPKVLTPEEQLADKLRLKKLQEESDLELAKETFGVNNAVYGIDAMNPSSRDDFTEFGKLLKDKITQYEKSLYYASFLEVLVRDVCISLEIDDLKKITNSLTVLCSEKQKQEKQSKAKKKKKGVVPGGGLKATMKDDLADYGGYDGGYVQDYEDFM
UniProt Q8N6R0: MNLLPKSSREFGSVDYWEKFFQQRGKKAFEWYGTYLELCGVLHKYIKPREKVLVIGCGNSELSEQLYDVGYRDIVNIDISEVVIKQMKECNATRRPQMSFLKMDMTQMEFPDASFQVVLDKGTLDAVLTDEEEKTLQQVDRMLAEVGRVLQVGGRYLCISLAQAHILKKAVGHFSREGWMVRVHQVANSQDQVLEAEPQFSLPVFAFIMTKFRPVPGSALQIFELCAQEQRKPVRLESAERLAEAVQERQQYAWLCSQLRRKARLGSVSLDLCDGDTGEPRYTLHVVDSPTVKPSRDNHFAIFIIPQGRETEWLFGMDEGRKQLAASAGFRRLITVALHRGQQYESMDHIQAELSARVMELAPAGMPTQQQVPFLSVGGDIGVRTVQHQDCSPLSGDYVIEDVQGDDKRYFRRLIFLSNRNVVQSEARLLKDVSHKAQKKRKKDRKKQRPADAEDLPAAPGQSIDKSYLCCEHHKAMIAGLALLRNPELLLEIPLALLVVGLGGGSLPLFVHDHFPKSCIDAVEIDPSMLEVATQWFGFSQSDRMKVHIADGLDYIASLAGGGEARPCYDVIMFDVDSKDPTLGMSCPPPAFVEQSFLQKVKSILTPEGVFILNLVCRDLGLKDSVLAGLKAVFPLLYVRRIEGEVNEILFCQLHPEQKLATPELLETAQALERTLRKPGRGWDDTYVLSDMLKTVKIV
UniProt Q9BQI3, whole entry, looked up: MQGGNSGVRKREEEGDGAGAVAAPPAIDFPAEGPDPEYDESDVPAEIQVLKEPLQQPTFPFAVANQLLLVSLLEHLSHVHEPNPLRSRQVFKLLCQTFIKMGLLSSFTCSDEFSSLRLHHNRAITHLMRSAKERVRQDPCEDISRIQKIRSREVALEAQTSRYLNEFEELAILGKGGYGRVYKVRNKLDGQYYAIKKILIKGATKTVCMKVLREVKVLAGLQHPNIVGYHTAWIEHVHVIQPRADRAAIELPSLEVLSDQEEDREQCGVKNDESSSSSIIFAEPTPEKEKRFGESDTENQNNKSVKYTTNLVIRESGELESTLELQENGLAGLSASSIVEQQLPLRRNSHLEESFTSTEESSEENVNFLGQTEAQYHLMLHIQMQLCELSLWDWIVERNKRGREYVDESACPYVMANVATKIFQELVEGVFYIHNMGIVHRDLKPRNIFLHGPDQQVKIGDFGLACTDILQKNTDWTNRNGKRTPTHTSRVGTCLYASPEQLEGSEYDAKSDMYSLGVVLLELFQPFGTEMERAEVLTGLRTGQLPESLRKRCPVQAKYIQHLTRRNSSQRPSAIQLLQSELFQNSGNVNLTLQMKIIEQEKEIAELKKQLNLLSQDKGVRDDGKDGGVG
UniProt Q5NDL2: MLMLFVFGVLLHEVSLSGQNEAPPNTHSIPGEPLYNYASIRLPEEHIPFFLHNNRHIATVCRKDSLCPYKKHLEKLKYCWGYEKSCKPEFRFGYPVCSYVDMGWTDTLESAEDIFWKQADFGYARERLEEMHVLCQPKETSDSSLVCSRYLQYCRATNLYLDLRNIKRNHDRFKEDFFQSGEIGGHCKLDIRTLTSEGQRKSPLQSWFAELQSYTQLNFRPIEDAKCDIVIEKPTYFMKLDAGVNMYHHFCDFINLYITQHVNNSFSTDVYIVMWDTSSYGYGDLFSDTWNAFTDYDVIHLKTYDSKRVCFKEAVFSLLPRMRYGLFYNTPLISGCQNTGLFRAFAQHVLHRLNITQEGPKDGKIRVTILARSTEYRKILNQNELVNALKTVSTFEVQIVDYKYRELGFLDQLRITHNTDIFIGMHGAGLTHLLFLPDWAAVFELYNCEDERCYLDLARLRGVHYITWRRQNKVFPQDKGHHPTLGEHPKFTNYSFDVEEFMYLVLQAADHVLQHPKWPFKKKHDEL
UniProt P19525: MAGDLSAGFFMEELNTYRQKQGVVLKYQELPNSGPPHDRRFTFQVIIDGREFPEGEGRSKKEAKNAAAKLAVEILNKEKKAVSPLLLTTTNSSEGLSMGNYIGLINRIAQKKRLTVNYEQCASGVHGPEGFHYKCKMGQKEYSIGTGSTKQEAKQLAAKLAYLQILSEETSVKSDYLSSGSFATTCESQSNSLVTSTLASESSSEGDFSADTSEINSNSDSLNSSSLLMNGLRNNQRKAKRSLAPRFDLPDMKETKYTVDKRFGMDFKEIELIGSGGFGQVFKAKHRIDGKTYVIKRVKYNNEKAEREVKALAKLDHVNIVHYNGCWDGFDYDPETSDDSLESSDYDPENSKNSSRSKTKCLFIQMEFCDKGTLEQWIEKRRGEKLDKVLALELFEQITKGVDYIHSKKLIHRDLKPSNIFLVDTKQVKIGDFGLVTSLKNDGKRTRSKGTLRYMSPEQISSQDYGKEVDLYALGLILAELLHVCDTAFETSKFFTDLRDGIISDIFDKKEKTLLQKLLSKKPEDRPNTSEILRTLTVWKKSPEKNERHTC
UniProt Q9BW60: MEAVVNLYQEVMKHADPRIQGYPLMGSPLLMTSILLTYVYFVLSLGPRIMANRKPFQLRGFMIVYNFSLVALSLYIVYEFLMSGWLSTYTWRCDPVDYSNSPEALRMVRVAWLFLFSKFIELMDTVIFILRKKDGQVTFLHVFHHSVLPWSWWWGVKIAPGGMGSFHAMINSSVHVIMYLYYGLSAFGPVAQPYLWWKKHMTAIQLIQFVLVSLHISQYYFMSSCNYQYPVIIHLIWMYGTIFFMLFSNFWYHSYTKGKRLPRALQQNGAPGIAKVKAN
UniProt P41091, whole entry, looked up: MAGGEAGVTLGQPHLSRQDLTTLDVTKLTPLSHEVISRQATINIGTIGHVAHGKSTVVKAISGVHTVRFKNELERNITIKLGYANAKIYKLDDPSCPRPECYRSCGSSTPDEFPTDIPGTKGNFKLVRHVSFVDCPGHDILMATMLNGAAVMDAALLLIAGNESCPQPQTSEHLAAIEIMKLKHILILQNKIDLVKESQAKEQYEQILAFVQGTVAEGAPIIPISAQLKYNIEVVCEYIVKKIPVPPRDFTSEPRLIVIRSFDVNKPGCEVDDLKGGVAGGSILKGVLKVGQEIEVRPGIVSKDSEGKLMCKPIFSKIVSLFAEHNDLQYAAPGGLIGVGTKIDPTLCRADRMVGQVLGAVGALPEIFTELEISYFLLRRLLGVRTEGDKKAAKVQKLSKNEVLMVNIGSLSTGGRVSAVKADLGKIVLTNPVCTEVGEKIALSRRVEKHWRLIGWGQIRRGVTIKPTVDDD
UniProt O60573: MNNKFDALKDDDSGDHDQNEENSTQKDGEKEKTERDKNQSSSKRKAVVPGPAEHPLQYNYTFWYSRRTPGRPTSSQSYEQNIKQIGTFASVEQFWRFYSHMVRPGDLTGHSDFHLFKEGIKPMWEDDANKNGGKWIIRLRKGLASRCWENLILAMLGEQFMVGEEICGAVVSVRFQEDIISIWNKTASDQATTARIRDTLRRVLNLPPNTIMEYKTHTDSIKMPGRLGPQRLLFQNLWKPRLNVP
UniProt O75071: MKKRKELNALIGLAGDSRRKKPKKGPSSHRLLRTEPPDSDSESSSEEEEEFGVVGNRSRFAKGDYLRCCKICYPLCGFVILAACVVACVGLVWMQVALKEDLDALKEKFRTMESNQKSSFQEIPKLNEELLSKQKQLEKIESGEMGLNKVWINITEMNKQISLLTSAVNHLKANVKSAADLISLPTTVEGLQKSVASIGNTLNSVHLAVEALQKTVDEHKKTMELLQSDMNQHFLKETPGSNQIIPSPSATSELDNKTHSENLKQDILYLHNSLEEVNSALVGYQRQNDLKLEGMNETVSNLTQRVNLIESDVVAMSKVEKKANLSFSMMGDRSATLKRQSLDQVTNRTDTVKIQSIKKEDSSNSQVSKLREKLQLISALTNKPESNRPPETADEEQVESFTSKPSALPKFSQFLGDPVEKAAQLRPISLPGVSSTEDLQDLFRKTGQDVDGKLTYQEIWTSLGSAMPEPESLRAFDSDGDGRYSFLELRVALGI
UniProt Q9GZT9: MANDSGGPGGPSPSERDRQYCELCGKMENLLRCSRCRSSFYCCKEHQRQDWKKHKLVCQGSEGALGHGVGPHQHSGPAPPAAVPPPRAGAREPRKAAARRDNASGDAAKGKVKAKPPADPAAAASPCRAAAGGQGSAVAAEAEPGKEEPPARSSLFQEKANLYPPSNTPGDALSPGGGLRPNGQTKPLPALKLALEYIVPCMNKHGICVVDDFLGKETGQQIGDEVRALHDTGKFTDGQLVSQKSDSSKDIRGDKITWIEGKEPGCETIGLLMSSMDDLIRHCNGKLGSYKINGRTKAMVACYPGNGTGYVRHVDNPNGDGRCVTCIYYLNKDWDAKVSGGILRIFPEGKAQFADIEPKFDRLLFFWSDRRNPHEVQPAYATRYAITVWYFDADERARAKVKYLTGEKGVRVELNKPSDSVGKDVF
UniProt O75354: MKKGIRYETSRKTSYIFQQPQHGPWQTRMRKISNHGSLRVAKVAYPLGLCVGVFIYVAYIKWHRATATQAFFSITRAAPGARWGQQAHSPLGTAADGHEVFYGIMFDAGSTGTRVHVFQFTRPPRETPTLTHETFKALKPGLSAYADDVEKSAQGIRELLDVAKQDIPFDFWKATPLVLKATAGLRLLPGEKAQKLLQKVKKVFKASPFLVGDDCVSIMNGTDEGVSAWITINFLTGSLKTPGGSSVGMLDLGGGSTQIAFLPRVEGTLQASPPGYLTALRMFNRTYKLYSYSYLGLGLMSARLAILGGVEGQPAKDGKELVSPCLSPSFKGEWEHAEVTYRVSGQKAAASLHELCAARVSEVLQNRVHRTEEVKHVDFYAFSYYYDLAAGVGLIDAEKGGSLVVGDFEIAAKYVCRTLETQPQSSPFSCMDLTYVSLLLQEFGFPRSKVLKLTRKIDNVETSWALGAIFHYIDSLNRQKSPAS
UniProt A1L3X0: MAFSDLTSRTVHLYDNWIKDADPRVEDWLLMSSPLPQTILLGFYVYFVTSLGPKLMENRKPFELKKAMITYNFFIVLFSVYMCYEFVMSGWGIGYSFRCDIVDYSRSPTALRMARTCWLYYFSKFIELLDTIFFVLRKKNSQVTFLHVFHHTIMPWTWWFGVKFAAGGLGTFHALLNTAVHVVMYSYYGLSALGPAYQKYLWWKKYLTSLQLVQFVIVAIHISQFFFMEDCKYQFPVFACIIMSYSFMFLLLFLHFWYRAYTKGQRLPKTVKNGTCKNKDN
UniProt O14638, whole entry, looked up: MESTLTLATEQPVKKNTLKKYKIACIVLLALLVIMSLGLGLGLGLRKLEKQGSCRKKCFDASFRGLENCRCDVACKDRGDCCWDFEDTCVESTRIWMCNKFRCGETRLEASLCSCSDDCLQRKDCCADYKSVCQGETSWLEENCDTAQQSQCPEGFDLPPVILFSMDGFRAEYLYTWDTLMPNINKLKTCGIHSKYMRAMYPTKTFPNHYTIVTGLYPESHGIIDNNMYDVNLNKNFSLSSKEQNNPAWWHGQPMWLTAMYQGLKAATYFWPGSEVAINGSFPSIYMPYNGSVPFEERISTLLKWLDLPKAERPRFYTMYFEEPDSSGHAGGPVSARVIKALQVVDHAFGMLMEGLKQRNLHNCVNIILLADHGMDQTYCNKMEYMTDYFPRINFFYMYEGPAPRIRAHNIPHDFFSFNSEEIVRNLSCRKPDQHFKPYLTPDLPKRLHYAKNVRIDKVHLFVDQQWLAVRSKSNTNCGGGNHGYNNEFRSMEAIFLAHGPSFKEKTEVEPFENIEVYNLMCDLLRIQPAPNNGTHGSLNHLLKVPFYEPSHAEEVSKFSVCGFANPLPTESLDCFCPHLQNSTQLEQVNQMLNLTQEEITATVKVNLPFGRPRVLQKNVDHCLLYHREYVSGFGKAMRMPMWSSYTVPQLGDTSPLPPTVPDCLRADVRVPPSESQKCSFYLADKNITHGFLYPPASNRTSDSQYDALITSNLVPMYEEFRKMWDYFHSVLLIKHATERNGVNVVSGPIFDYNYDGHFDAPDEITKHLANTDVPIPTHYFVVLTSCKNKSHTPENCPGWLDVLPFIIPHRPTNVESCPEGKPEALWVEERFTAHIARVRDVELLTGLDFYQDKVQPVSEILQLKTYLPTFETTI
UniProt Q9NYP7: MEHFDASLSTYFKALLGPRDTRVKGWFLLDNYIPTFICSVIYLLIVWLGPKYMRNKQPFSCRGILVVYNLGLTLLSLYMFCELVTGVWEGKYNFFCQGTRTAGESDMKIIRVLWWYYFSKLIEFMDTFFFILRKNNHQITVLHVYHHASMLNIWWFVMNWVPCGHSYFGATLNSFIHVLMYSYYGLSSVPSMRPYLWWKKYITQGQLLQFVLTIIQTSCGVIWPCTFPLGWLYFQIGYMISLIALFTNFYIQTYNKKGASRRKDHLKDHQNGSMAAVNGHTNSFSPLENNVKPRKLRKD

The results in this text go back to the supplement of paper PMC10849652.

Compound in the first test: C1=CC2=C(C=CC(=C2)/C=C\3/C(=O)NC(=NCC4=CC=CS4)S3)N=C1
In words: log2 fold change, soluble protein after heating vs DMSO (PISA); higher = thermal stabilisation; K562 cells, 10 uM, 30 min; active = over 0.2 and 3.5 SD of the protein, either way, in both replicates (recomputed). The gist of the method:
(§1)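 K562 cells at 2×10^6 cells/mL were exposed to 10 μM compound for 30 min, then aliquots were heated for 3 min across 48°C-58°C, pooled, and extracted in PBS containing 0.5% NP-40 at 4°C. The supernatant after 21,000xg for 90 min was taken as soluble protein and measured by TMTpro 16plex LC-MS/MS with channel sums equalised. Thermal stability is reported relative to control samples, with values from duplicates. Fold changes are given on a log2 scale.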
As to EIF4G3 isoform 3 (UniProt O43432), the log2 fold change is inactive: 0.041.

For the target EIF3J isoform 2 (UniProt O75822), the log2 fold change is inactive: 0.14.

As for EEF1AKNMT (UniProt Q8N6R0), the log2 fold change is inactive: 0.114.

Regarding EIF2AK1 (UniProt Q9BQI3), the log2 fold change is inactive: -0.029.

As to EIF2B4 (UniProt Q9UI10), the log2 fold change was inactive: -0.041.

As to EIF3G (UniProt K7ER90), the log2 fold change is inactive: -0.025.

For EED, A0A5F9ZI63, the log2 fold change is inactive: -0.1.

Consider EOGT (UniProt Q5NDL2), for which the log2 fold change is inactive: -0.026.

For EIF2AK2 (UniProt P19525), the log2 fold change was inactive: -0.104.

With ELOVL1 (UniProt Q9BW60), the log2 fold change is inactive: 0.036.

On to EIF2S3 (UniProt P41091), for which the log2 fold change is inactive: -0.023.

Regarding EGR1 (UniProt P18146), the log2 fold change is inactive: 0.208.

With ELL (UniProt P55199), the log2 fold change was inactive: 0.093.

Regarding EEF1G isoform 2 (UniProt P26641), the log2 fold change is inactive: -0.036.

Turning to ELAC1 (UniProt Q9H777), the log2 fold change was inactive: 0.041.

With EIF4E2 (UniProt O60573), the log2 fold change was inactive: -0.007.

Turning to EFCAB14 (UniProt O75071), the log2 fold change is inactive: -0.049.

Turning to EGLN1 (UniProt Q9GZT9), the log2 fold change was inactive: 0.043.

In the case of ENTPD6 (UniProt O75354), the log2 fold change is inactive: -0.058.

On to EFEMP1 (UniProt Q12805), for which the log2 fold change was inactive: 0.177.

Consider ELOVL7 (UniProt A1L3X0), for which the log2 fold change was inactive: 0.182.

In the case of EFL1 (UniProt Q7Z2Z2), the log2 fold change was inactive: 0.013.

As for EFCAB2 (UniProt Q5VUJ9), the log2 fold change is inactive: 0.311.

As to EPB41, A0A2R8Y6D0, the log2 fold change is inactive: -0.098.

Turning to EIF2AK3 (UniProt Q9NZJ5), the log2 fold change is inactive: 0.421.

As for EML5 isoform 5 (UniProt Q05BV3), the log2 fold change was inactive: 0.121.

Turning to ENPP3 (UniProt O14638), the log2 fold change is inactive: 0.031.

Take EIF3J (UniProt O75822): the log2 fold change is inactive: 0.012.

Take ELOVL5 isoform 2 (UniProt Q9NYP7): the log2 fold change is inactive: 0.084.

Take EIF4H isoform 2 (UniProt Q15056): the log2 fold change is inactive: -0.228.

Regarding EIF4ENIF1 isoform 3 (UniProt Q9NRA8), the log2 fold change is inactive: -0.015.

As to ELF1 (UniProt P32519), the log2 fold change is inactive: -0.003.

Compound in the next test: C1=CC2=NC=CN=C2C=C1/C=C/3\C(=O)NC(=O)S3
The description is as above. The gist of the method: as §1
On to EIF4G3 isoform 3 (UniProt O43432), for which the log2 fold change is inactive: -0.046.

For EIF3J isoform 2 (UniProt O75822), the log2 fold change was inactive: -0.042.

EEF1AKNMT (UniProt Q8N6R0): the log2 fold change was inactive: 0.013.

Regarding EIF2AK1 (UniProt Q9BQI3), the log2 fold change is inactive: -0.114.

As to EIF2B4 (UniProt Q9UI10), the log2 fold change was inactive: 0.169.

As to EIF3G (UniProt K7ER90), the log2 fold change was inactive: 0.527.

Regarding EED, A0A5F9ZI63, the log2 fold change is inactive: 0.05.

Take EIF1B (UniProt O60739): the log2 fold change was inactive: 0.099.

In the case of EOGT (UniProt Q5NDL2), the log2 fold change is inactive: -0.016.

Consider EIF2AK2 (UniProt P19525), for which the log2 fold change was inactive: -0.04.

Turning to ELOVL1 (UniProt Q9BW60), the log2 fold change was inactive: 0.011.

As to EIF2S3 (UniProt P41091), the log2 fold change is inactive: -0.006.

As to EGR1 (UniProt P18146), the log2 fold change is inactive: 0.088.

For the target ELL (UniProt P55199), the log2 fold change was inactive: 0.124.

On to EEF1G isoform 2 (UniProt P26641), for which the log2 fold change was inactive: -0.021.

As for EIF4E2 (UniProt O60573), the log2 fold change is inactive: -0.054.

EFCAB14 (UniProt O75071): the log2 fold change was inactive: 0.033.

For the target EGLN1 (UniProt Q9GZT9), the log2 fold change is inactive: -0.08.

As to ENTPD6 (UniProt O75354), the log2 fold change was inactive: 0.017.

For the target EFL1 (UniProt Q7Z2Z2), the log2 fold change is inactive: 0.002.

EPB41, A0A2R8Y6D0: the log2 fold change was inactive: 0.021.

For the target EIF2AK3 (UniProt Q9NZJ5), the log2 fold change was inactive: -0.311.

On to EML5 isoform 5 (UniProt Q05BV3), for which the log2 fold change is inactive: 0.099.

On to ELMO1 (UniProt Q92556), for which the log2 fold change is inactive: 0.037.

As for ENPP3 (UniProt O14638), the log2 fold change is inactive: -0.008.

Take EIF3J (UniProt O75822): the log2 fold change is inactive: 0.048.

On to ELOVL5 isoform 2 (UniProt Q9NYP7), for which the log2 fold change was inactive: 0.122.

Turning to EIF4ENIF1 isoform 3 (UniProt Q9NRA8), the log2 fold change is inactive: 0.

Compound in the next test: C1=CC=C(C=C1)C2=NC(=C(N2)C3=CC=NC=C3)C4=CC(=C(C=C4)Cl)O
The description is as above. The gist of the method:
as §1
For EIF4G3 isoform 3 (UniProt O43432), the log2 fold change was inactive: -0.028.

In the case of EEF1AKNMT (UniProt Q8N6R0), the log2 fold change is inactive: 0.091.

In the case of EIF2AK1 (UniProt Q9BQI3), the log2 fold change is inactive: -0.029.

For EED, A0A5F9ZI63, the log2 fold change is inactive: -0.036.

For EIF1B (UniProt O60739), the log2 fold change is inactive: 0.1.

Turning to EOGT (UniProt Q5NDL2), the log2 fold change was inactive: -0.032.

In the case of EIF2AK2 (UniProt P19525), the log2 fold change was inactive: -0.191.

On to ELOVL1 (UniProt Q9BW60), for which the log2 fold change is inactive: 0.069.

For the target EIF2S3 (UniProt P41091), the log2 fold change is inactive: -0.037.

As to EGR1 (UniProt P18146), the log2 fold change is inactive: -0.28.

ELL (UniProt P55199): the log2 fold change is inactive: -0.089.

Turning to EEF1G isoform 2 (UniProt P26641), the log2 fold change was inactive: 0.083.

In the case of EIF4E2 (UniProt O60573), the log2 fold change is inactive: -0.111.

In the case of EFCAB14 (UniProt O75071), the log2 fold change is inactive: 0.159.

Regarding EGLN1 (UniProt Q9GZT9), the log2 fold change was inactive: 0.021.

With ENTPD6 (UniProt O75354), the log2 fold change is inactive: -0.019.

Turning to EFEMP1 (UniProt Q12805), the log2 fold change is inactive: -0.074.

Regarding EFL1 (UniProt Q7Z2Z2), the log2 fold change is inactive: 0.053.

For EFCAB2 (UniProt Q5VUJ9), the log2 fold change is inactive: 0.059.

Regarding EPB41, A0A2R8Y6D0, the log2 fold change is inactive: 0.06.

In the case of EML5 isoform 5 (UniProt Q05BV3), the log2 fold change was inactive: -0.027.

For ELMO1 (UniProt Q92556), the log2 fold change is inactive: -0.308.

For ENPP3 (UniProt O14638), the log2 fold change is inactive: 0.007.

In the case of EIF3J (UniProt O75822), the log2 fold change was inactive: 0.101.

Take ELOVL5 isoform 2 (UniProt Q9NYP7): the log2 fold change is inactive: 0.068.

In the case of EIF4ENIF1 isoform 3 (UniProt Q9NRA8), the log2 fold change was inactive: 0.082.

For the target ELF1 (UniProt P32519), the log2 fold change is inactive: 0.082.
